Results reported in article doi:10.1101/2024.12.01.626218.
No constants are given. Whether binding was seen depends on the method and setting. For some of these results: Binding seen in cells or lysates may run through a third protein. Some entries that bind do so weakly or less than the wild type. For some of these results: Sequences can lack the tags named with a protein.

Protein sequences, listed by entry. Tags and fused reporters are not part of them.
UniProt Q99LZ3: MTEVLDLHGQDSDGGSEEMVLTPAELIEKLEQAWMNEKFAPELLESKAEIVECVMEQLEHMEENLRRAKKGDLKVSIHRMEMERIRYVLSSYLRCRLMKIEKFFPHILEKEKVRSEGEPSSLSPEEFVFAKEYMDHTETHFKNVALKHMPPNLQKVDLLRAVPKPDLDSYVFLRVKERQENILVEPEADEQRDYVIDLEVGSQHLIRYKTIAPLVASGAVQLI
UniProt Q8BIW9: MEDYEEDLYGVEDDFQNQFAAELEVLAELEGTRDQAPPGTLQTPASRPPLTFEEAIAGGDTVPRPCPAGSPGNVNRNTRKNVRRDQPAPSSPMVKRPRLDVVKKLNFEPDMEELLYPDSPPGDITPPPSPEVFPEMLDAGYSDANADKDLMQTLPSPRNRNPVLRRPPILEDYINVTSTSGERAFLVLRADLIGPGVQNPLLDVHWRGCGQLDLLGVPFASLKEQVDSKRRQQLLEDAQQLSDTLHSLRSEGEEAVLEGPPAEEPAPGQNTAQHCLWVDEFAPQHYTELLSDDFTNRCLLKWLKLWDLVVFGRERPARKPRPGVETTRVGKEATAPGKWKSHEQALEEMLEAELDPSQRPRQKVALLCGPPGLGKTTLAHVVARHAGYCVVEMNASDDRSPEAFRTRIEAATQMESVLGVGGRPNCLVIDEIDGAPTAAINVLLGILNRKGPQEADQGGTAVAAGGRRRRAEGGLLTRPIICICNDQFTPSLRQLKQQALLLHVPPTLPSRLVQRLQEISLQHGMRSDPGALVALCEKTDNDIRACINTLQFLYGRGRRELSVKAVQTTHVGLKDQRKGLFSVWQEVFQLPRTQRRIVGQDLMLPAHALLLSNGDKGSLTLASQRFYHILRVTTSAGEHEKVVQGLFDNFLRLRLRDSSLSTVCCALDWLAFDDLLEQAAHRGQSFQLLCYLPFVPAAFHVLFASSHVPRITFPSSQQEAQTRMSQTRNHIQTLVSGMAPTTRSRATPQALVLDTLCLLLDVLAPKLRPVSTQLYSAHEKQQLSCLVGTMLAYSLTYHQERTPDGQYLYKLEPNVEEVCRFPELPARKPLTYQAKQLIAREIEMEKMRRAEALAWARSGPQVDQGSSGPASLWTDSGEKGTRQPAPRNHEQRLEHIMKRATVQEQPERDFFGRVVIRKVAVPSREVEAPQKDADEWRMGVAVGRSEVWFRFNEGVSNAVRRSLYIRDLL
UniProt Q61881: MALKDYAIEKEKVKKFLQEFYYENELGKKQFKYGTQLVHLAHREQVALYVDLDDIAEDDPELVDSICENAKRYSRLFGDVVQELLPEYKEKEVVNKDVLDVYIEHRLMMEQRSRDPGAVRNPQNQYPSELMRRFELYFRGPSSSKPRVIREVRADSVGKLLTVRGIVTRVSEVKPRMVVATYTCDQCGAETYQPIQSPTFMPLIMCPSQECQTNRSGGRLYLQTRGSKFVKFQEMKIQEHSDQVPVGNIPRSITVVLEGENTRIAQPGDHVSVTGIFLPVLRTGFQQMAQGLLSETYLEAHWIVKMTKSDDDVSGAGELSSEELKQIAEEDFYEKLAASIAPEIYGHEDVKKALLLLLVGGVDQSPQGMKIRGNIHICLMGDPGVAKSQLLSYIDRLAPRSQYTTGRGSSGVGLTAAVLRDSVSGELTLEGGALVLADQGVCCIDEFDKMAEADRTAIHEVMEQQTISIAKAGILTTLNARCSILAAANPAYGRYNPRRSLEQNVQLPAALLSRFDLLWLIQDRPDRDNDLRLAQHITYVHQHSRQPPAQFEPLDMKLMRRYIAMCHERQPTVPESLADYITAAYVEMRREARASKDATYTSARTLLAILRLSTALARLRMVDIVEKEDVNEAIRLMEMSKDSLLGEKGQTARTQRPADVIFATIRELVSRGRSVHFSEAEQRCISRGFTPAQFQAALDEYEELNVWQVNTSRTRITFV

T1: DBD-TRAIP 307-333 (mouse) (UniProt Q8VIG6)
T1 sequence: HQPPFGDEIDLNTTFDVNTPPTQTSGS


What was measured:
[1] = biological target: GFP-SLD5 (subunit of the CMG helicase, used to isolate CMG) (mouse) (UniProt Q99LZ3); test: co-IP
[2] = biological target: T1, DBD-TRAIP 307-333 (mouse); test: two-hybrid

Molecule	binding [1]	binding [2]
CTF18 (from UniProt Q8BIW9 1-969)	binds	–
MCM7 (from UniProt Q61881 1-719)	binds	–
MCM3 (protein, UniProt P25206 1-812, ubiquitylated in part after Calyculin A) MAGTVVLDDVELREAQRDYLDFLDDEEDQGIYQNKVRELISDNQYRLIVSVNDLRRKNEKRANRLLNNAFEELVAFQRALKDFVASIDATYAKQYEEFYIGLEGSFGSKHVSPRTLTSCFLSCVVCVEGIVTKCSLVRPKVVRSVHYCPATKKTIERRYSDLTTLVAFPSSSVYPTKDEENNPLETEYGLSVYKDHQTITIQEMPEKAPAGQLPRSVDVILDDDLVDKVKPGDRIQVVGTYRCLPGKKGCYTSGTFRTVLIACNVKQMSKDIQPAFSADDIAKIKKFSKTRSKDVFEQLARSLAPSIHGHDYVKKAILCLLLGGVERELENGSHIRGDINILLIGDPSVAKSQLLRYVLCTAPRAIPTTGRGSSGVGLTAAVTTDQETGERRLEAGAMVLADRGVVCIDEFDKMSDMDRTAIHEVMEQGRVTIAKAGIHARLNARCSVLAAANPVYGRYDQYKTPMENIGLQDSLLSRFDLLFIMLDQMDPEQDREISDHVLRMHQYRAPGEQDGDALPLGSSVDILATDDPDFTQDDQQDTRIYEKHDSLLHGTKKKKEKMVSAAFMKKYIHVAKIIKPTLTQESAAYIAEEYSRLRSQDSMSSDTARTSPVTARTLETLIRLATAHAKARMSKTVDLQDAEEAVELVQYAYFKKVLEKEKKRKKASEDESDLEDEEEKSQEDTEQKRKRRKTHAKDGESYDPYDFSEAETQMPQVHTPKTDDSQEKTDDSQETQDSQKVELSEPRLKAFKAALLEVFQEAHEQSVGMLHLTESINRNREEPFSSEEIQACLSRMQDDNQVMVSEGIVFLI	binds	–
AD-TTF2 1-96 (domain or fragment, UniProt Q5NC05 1-96) MDLVKCPEHGDACFLKTGVRDGPNKGKSFYVCRTNTCGFVQATDIPVSHCLLHEEFVVELQGLFLPQDKKEWRLFFRCARTKAEGKQWCGNVPWRQ	–	binds
